Values from PubChem BioAssay AID652243 (Drosophila RNAi Screening Center, 2013).
In all, the deposit lists about 24,000 reagents; shown is a random part of those that have a named target and a result. Over the whole deposit, 246 (1%) are marked active. 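Plates not normalised; calls are printed but the firefly/Renilla ratio behind them is not deposited; fold cut for lowering reported inconsistently.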 Raw values are not corrected between plates. Reagents against one gene are numbered here. Not given: the amount of reagent.

Purpose: 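Fly regulators of androgen-dependent reporter output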 (primary screen)
Cells: Drosophila S2R+ cells
Reagent: long dsRNA against Drosophila genes
Duration: 72 h (48 h, then 24 h hormone)
Challenge: synthetic androgen R1881 at 10 nM for 24 h
Detection: 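Per-well raw luminescence of the androgen-driven firefly reporter and of the Renilla control, two replicates each, without normalisation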
Reading the numbers: firefly reporter light: higher = more light from androgen-responsive reporter; Renilla control light: higher = more constitutive control signal (cell number, transfection)
Call rule: 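Across duplicate plates, a knock-down whose log firefly/Renilla ratio shifted a set fold down or up from the GFP/LacZ control mean was a hit; the downward cut appears as both 1.5 and 3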
Calls: active = hit: reporter lowered or raised; inactive = no hit

IRSp53 scored firefly reporter light, replicate 1 = 1.31e5; firefly reporter light, replicate 2 = 1.12e5; Renilla control light, replicate 1 = 1.54e6; Renilla control light, replicate 2 = 1.86e6; inactive.
Depletion of side-VIII #1 resulted in: firefly reporter light, replicate 1 = 1.58e5; firefly reporter light, replicate 2 = 2.07e5; Renilla control light, replicate 1 = 3.55e5; Renilla control light, replicate 2 = 3.50e5; inactive.
side-VIII #2 gave firefly reporter light, replicate 1 = 43836; firefly reporter light, replicate 2 = 52407; Renilla control light, replicate 1 = 1.29e5; Renilla control light, replicate 2 = 1.61e5; inactive.
After knock-down of side-VIII #3 the results were firefly reporter light, replicate 1 = 1.83e5; firefly reporter light, replicate 2 = 1.79e5; Renilla control light, replicate 1 = 1.89e6; Renilla control light, replicate 2 = 1.69e6; inactive.
Depletion of side-VIII #4 gave: firefly reporter light, replicate 1 = 7.99e5; firefly reporter light, replicate 2 = 8.12e5; Renilla control light, replicate 1 = 2.01e6; Renilla control light, replicate 2 = 1.96e6; inactive.
Knock-down of side-VIII #5 gave: firefly reporter light, replicate 1 = 3.19e5; firefly reporter light, replicate 2 = 5.55e5; Renilla control light, replicate 1 = 1.25e6; Renilla control light, replicate 2 = 1.75e6; inactive.
Against side-VIII #6 the deposit lists inactive.
RPA1 scored firefly reporter light, replicate 1 = 42513; firefly reporter light, replicate 2 = 41507; Renilla control light, replicate 1 = 4.67e5; Renilla control light, replicate 2 = 4.33e5; inactive.
For CG2310 the deposit lists firefly reporter light, replicate 1 = 1.73e5; firefly reporter light, replicate 2 = 1.18e5; Renilla control light, replicate 1 = 1.97e6; Renilla control light, replicate 2 = 2.25e6; inactive.
With knock-down of GILT1 the results were firefly reporter light, replicate 1 = 56947; firefly reporter light, replicate 2 = 56283; Renilla control light, replicate 1 = 3.40e5; Renilla control light, replicate 2 = 4.03e5; inactive.
GstE12 #1 showed firefly reporter light, replicate 1 = 1.31e5; firefly reporter light, replicate 2 = 2.30e5; Renilla control light, replicate 1 = 1.22e6; Renilla control light, replicate 2 = 1.18e6; inactive.
Knock-down of GstE12 #2 gave: firefly reporter light, replicate 1 = 2.79e5; firefly reporter light, replicate 2 = 2.72e5; Renilla control light, replicate 1 = 6.23e5; Renilla control light, replicate 2 = 6.30e5; inactive.
Against AGBE #1 the deposit lists firefly reporter light, replicate 1 = 1.20e6; firefly reporter light, replicate 2 = 1.24e6; Renilla control light, replicate 1 = 1.40e6; Renilla control light, replicate 2 = 1.53e6; inactive.
AGBE #2 gave firefly reporter light, replicate 1 = 3.79e5; firefly reporter light, replicate 2 = 4.40e5; Renilla control light, replicate 1 = 5.52e5; Renilla control light, replicate 2 = 7.92e5; inactive.
Against Muc4B #1 the deposit lists firefly reporter light, replicate 1 = 2.20e5; firefly reporter light, replicate 2 = 3.33e5; Renilla control light, replicate 1 = 1.54e6; Renilla control light, replicate 2 = 2.35e6; inactive.
Against Muc4B #2, the values are firefly reporter light, replicate 1 = 3.74e5; firefly reporter light, replicate 2 = 3.92e5; Renilla control light, replicate 1 = 3.30e6; Renilla control light, replicate 2 = 3.87e6; inactive.
Against Muc4B #3 the deposit lists firefly reporter light, replicate 1 = 7.28e5; firefly reporter light, replicate 2 = 3.84e5; Renilla control light, replicate 1 = 7.45e5; Renilla control light, replicate 2 = 3.69e5; inactive.

A stretch from the list above, for reference:
side-VIII #6 — Outcome: inactive
RPA1 — firefly reporter light, replicate 1: 42513; firefly reporter light, replicate 2: 41507; Renilla control light, replicate 1: 4.67e5; Renilla control light, replicate 2: 4.33e5; Outcome: inactive
CG2310 — firefly reporter light, replicate 1: 1.73e5; firefly reporter light, replicate 2: 1.18e5; Renilla control light, replicate 1: 1.97e6; Renilla control light, replicate 2: 2.25e6; Outcome: inactive
GILT1 — firefly reporter light, replicate 1: 56947; firefly reporter light, replicate 2: 56283; Renilla control light, replicate 1: 3.40e5; Renilla control light, replicate 2: 4.03e5; Outcome: inactive

The list goes on:
Depletion of Incenp #1 resulted in: firefly reporter light, replicate 1 = 5.41e5; firefly reporter light, replicate 2 = 4.90e5; Renilla control light, replicate 1 = 9.88e5; Renilla control light, replicate 2 = 1.49e6; inactive.
Against Incenp #2, the values are firefly reporter light, replicate 1 = 3.00e5; firefly reporter light, replicate 2 = 3.03e5; Renilla control light, replicate 1 = 1.16e6; Renilla control light, replicate 2 = 1.02e6; inactive.
For Incenp #3 the deposit lists firefly reporter light, replicate 1 = 2.23e5; firefly reporter light, replicate 2 = 3.56e5; Renilla control light, replicate 1 = 1.60e6; Renilla control light, replicate 2 = 1.39e6; inactive.
For CG14443, the entry reads firefly reporter light, replicate 1 = 1.91e5; firefly reporter light, replicate 2 = 1.99e5; Renilla control light, replicate 1 = 2.43e6; Renilla control light, replicate 2 = 2.37e6; inactive.
After knock-down of CG15443, the record shows firefly reporter light, replicate 1 = 1.40e5; firefly reporter light, replicate 2 = 84161; Renilla control light, replicate 1 = 1.01e6; Renilla control light, replicate 2 = 9.51e5; inactive.
Against CG12111 #1 the deposit lists firefly reporter light, replicate 1 = 2.83e5; firefly reporter light, replicate 2 = 3.25e5; Renilla control light, replicate 1 = 3.53e6; Renilla control light, replicate 2 = 3.12e6; inactive.
With knock-down of CG12111 #2 the results were firefly reporter light, replicate 1 = 3.59e5; firefly reporter light, replicate 2 = 1.78e5; Renilla control light, replicate 1 = 5.51e5; Renilla control light, replicate 2 = 3.33e5; inactive.
Snx17 #1 scored firefly reporter light, replicate 1 = 5.44e5; firefly reporter light, replicate 2 = 7.18e5; Renilla control light, replicate 1 = 2.37e6; Renilla control light, replicate 2 = 2.27e6; inactive.
Depletion of Snx17 #2 resulted in: firefly reporter light, replicate 1 = 4.15e5; firefly reporter light, replicate 2 = 4.83e5; Renilla control light, replicate 1 = 1.05e6; Renilla control light, replicate 2 = 9.87e5; inactive.
Knock-down of Recs1 gave: firefly reporter light, replicate 1 = 1.94e5; firefly reporter light, replicate 2 = 1.99e5; Renilla control light, replicate 1 = 2.73e6; Renilla control light, replicate 2 = 2.42e6; inactive.
